Source: patent EP4477666A1
Results are given in words; binding and its absence hold for the method and conditions named. Some binding calls cover weakened binding; strength is not graded here. Values belong to the binder of their own block, whether it stands above or below them.

The chains behind the UniProt entries cited, without tags or fusion partners. Where a name states a change or a piece, a line headed by the entry shows the natural chain unless it says otherwise. Residues count along the entry.
UniProt P01870, residues 96-323: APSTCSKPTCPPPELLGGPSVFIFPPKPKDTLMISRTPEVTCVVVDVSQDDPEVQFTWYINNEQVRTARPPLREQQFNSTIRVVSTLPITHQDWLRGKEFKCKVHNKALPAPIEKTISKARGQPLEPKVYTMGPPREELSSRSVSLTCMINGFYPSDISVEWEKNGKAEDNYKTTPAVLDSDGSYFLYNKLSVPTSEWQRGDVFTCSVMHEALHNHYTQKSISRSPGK
UniProt P35658: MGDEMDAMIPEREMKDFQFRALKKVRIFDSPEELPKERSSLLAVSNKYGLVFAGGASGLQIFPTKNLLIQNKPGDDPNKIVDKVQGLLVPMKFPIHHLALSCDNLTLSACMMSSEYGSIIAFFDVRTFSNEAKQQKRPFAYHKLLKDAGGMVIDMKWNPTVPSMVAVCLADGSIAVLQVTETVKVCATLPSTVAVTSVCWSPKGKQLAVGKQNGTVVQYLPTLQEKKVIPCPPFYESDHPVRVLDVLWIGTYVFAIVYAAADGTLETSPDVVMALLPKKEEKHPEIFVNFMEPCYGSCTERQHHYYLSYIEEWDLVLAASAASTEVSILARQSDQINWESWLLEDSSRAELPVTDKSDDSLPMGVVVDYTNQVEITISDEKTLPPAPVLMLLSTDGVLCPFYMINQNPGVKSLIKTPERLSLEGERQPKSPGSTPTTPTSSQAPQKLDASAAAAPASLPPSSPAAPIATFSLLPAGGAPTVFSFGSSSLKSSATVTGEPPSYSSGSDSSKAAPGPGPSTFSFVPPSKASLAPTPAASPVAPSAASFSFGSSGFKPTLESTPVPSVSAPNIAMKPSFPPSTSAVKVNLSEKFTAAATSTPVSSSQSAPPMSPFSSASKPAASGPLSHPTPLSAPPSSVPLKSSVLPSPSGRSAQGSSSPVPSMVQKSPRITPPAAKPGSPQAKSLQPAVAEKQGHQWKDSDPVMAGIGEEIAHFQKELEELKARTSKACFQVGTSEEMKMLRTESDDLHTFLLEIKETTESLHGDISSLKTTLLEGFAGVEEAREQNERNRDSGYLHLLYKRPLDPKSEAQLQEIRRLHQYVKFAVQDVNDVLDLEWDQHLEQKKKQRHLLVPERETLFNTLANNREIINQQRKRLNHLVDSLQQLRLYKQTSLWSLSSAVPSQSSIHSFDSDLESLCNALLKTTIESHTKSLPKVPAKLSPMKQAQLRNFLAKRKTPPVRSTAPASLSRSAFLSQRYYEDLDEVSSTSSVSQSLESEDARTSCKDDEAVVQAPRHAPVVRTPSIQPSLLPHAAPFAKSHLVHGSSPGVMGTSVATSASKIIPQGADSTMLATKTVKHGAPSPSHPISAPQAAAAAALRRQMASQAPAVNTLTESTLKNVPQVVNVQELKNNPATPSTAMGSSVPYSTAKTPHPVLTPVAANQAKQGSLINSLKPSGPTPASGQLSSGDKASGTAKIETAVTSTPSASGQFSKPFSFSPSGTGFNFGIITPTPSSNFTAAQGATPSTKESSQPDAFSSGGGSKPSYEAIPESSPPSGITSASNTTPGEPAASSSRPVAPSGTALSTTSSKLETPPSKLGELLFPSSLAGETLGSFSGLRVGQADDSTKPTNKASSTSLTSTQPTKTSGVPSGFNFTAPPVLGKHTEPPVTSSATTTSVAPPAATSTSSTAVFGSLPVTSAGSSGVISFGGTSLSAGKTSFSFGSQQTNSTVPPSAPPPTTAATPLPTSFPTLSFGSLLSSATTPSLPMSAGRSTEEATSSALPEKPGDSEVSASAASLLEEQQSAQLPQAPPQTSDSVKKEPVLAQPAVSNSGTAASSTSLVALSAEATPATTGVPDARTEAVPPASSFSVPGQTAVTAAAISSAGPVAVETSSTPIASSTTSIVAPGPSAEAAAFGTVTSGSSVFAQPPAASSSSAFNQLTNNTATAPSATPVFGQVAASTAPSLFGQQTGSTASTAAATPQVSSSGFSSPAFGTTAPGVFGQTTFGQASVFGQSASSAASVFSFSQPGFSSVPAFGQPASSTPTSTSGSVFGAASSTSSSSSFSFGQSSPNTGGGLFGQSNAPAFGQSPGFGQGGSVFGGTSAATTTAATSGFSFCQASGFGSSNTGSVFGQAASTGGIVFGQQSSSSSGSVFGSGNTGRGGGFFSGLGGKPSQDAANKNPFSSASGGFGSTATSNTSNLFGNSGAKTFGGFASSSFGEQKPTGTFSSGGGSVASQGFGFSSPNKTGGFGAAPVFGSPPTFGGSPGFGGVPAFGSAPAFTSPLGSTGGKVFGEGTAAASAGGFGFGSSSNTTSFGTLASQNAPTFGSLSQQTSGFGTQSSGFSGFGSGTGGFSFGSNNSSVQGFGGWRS
UniProt Q99567: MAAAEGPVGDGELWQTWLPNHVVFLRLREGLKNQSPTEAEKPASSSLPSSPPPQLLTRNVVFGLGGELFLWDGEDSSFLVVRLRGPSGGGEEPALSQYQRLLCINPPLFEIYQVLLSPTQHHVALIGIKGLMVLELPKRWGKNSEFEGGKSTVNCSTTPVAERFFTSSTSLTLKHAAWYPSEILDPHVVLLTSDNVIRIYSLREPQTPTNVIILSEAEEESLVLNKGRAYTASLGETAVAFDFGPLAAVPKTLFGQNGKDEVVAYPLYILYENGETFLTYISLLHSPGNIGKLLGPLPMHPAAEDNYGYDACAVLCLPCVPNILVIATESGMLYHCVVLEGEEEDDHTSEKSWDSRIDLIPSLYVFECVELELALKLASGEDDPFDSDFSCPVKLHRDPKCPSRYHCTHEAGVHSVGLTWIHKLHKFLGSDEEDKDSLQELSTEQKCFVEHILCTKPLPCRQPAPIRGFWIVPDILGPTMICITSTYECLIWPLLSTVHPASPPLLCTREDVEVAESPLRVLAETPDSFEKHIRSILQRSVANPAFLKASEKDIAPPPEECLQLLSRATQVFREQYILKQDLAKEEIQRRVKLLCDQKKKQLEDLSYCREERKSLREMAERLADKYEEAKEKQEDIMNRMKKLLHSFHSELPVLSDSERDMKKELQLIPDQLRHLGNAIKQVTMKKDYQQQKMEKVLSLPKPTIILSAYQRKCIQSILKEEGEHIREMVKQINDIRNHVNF
UniProt P37198: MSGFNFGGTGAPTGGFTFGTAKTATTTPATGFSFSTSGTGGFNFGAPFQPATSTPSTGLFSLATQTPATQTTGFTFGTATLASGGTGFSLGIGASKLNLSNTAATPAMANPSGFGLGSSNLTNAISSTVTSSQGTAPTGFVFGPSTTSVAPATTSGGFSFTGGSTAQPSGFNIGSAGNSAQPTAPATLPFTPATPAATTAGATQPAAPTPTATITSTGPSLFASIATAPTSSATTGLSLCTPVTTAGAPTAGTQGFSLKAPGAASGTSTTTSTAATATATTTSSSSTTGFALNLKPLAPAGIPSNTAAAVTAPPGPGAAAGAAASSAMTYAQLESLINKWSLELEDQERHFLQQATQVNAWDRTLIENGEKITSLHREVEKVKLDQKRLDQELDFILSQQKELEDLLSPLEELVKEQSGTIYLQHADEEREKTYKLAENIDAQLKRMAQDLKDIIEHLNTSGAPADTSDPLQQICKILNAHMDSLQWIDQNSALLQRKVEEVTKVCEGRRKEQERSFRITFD

What was measured:
[1] = biological target: rabbit IgG Fc (rabbit) (UniProt P01870); experiment: Table 1, target and cross-reactivity; no assay described
[2] = biological target: T1, human Nup133 β-propeller (human) (UniProt Q8WUM0); experiment: Table 1, target and cross-reactivity (immunofluorescence, Figure 1)
T1 sequence (looked up): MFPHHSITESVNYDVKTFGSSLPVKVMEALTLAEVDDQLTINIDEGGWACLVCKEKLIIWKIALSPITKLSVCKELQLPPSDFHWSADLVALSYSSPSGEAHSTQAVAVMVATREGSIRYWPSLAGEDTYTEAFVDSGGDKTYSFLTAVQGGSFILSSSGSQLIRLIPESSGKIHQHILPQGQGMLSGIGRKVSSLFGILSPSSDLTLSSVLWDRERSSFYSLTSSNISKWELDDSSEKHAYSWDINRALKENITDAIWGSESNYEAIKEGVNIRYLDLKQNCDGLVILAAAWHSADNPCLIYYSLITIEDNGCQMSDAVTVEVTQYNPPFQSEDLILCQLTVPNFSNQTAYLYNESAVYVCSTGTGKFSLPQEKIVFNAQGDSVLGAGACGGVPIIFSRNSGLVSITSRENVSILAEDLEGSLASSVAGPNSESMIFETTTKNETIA

[3] = biological target: human Nup214·Nup88·Nup62 coiled coil trimer (human) (UniProt P35658+Q99567+P37198); experiment: as above
[4] = biological target: T2, human Nup107-Nup133 α-solenoid (human) (UniProt P57740+Q8WUM0); experiment: as above
T2 sequence (looked up) 1: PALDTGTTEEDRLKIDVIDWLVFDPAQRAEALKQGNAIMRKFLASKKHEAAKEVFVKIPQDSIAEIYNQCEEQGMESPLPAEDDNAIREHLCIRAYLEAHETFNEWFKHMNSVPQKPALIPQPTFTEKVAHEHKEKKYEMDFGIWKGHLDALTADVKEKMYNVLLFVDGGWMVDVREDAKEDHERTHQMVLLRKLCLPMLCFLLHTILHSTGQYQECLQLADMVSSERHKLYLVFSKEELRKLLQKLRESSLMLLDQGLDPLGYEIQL
T2 sequence (looked up) 2: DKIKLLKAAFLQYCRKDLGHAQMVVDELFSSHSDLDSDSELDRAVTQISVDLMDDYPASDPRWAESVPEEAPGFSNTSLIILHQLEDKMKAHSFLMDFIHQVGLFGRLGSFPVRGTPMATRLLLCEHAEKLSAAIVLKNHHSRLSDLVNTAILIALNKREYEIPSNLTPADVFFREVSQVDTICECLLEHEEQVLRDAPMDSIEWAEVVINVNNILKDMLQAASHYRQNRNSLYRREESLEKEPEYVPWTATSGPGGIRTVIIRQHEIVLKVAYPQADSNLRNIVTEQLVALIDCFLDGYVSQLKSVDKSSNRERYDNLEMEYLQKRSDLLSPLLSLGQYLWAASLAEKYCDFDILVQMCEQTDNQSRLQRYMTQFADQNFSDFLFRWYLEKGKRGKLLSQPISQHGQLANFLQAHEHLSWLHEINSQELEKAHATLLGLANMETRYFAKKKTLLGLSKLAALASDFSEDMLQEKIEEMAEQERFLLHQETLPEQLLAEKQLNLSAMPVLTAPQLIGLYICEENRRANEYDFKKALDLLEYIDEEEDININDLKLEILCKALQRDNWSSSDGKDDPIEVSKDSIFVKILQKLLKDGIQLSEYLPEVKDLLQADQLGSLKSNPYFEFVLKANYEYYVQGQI

[5] = biological target: T3, human Nup35 RRM domain (human) (UniProt Q8NFH5); experiment: as above
T3 sequence (looked up): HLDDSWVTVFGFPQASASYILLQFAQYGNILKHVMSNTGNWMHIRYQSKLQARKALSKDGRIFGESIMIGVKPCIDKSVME

[6] = biological target: T4, human Nup93 α-solenoid (human) (UniProt Q8N1F7); experiment: as above
T4 sequence (looked up): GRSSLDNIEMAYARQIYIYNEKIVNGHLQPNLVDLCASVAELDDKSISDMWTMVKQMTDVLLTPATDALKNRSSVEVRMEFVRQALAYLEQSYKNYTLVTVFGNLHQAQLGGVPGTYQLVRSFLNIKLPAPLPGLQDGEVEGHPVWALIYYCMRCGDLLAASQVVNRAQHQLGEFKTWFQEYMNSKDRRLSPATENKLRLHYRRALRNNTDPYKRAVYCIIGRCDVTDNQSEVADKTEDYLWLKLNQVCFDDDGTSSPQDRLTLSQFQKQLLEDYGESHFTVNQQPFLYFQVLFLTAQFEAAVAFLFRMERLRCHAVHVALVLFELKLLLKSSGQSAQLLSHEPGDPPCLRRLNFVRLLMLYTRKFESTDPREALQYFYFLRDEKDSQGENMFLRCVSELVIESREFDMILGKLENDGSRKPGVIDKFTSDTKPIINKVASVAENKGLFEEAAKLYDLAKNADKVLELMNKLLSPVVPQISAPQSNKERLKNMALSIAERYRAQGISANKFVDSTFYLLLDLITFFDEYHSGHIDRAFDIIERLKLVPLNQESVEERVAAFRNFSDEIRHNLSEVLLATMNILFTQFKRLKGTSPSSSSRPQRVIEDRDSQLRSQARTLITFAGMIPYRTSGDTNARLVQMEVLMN

- binding [1]: binds
B1: Nb116 (VHH)
VHH: QVQLVESGGGLVQPGGSLTLSCTVSRIINWTRMGWSRTAPGKQREFVANIDPSGTTNYADFVKGRFAISVNNDKRTVFLQMNGLKPEDTAVYRCFTIEPDRGTNWGQGTQVTVSS

- binding [2]: binds
B2: KG1C05 (VHH)
VHH: QVQLVESGGGLVQAGGSLRLACATSGILLSKAVMDWYRQIPGKQRELVARTGIRDSATYADFVKGRFTVSRENENNTVYLQMNSLQPEDAGLYVCKAAVTGVFGRLSEHWGQGTQVTVSS

- binding [3]: binds
B3: Re3E01 (VHH)
VHH: QVQLVESGGGLVQPGGSLRLSCAASGFTFTDYLMAWYRQAPGNQRQLVAYITSDGSTVYASSARGRFTISRDNAKNTVTLQMNSLLLDDTAVYYCSAKSGLKDYYGQGTQVTVSS

- binding [4]: binds
B4: KG2E04 (VHH)
VHH: QVQLVESGGGLVQAGGSLRLSCAASGRGFSGYTWGWFRQVPGKDRTFVAAMSWITGSTYYADSVKGRFTISGDNAKNTLLLQMDNLKPNDTAVYYCAARSKVSPDYDIWGQGTQVTVSS

- binding [4]: binds
B5: KG2B12 (VHH)
VHH: QVQLVESGGGLVQAGGSLRLSCAASGRGFSGYTWGWFRQVPGKERTFVAAMSWITGSTYYADSVKGRFTISGDNAKNTLLLQMNNLKPGDTAVYYCAARSKVSYDYDIWGQGTLVTVSS

- binding [4]: binds
B6: KG2B08 (VHH)
VHH: QVQLVESGGGLVQAGGSLRLSCAASGRGFSGYTWGWFRQVPGKERTFVAAMSWITGSTYYADSVKGRFTISGDNAKNTLLLQMNNLKPGDTAVYYCAARSKVSYDYDIWGQGTQVTVSS

- binding [2]: binds
B7: KG1D08 (VHH)
VHH: QVQLVESGGGLVQAGGSLRLSCAASGRSFRGNIMAWFRQTPGKERLFVASITGSGYTSYENSVKGRFTISRDSARDTVDLQMTTLAPEDTAVYYCAGRFRGGHNRMPDAYEYWGQGTQVTVSS

- binding [5]: binds
B8: xhNup35-Nb1t (VHH)
VHH: QVQLVESGGGLVQAGGSLRLSCVGTGNISSAYTMAWYRQAAGKEREVVAGILNGGSTHYADSVKGRFTISRDNAKNTVYLQMNSLQPEDTGVYCCHVVIESTRFVYDHYWGQGTRVTVSS

- binding [6]: binds
B9: xhNup93-Nb3t (VHH)
VHH: QVQLVESGGGVVQTGDSLMLSCLFSGRPGRVFGHYLMGWFRQIPGKERDVVAAISFSGDPTYYADSVKGRATISRDNAKNTVYLQMNGLKSEDTAVYYCAADRLPYGDSWASKDEYDYWGQGTQVTVSS
